1 substance from PMC11540850 can be followed below.

The target in this experiment is SKI3 (subunit of the SKI238 complexes) (human) (UniProt Q6PGP7). The experiment can be described thus: co-purification (nickel affinity and ion exchange); SKI2, 10xHis-SKI3 and SKI8 co-expressed from one plasmid in Hi5 insect cells; complex purified through the His tag on SKI3.

These are yes or no findings as the source states them, for the method shown. Some results given as binding are weak or reduced against the parent protein; the word gives no strength.

For “SKI2 helicase (subunit of the wild-type SKI238 complex) (from UniProt Q15477 1-1246) (enzyme)”, the binding entry was “binds”.
